Experimental data reported in patent publication US20200108115A1, “MEDICINAL COMPOSITION DERIVED FROM MULTIPLE PLANT SOURCES FOR GASTROINTESTINAL DISORDER” (priority 2017, published 2020).
In brackets after ≈: the same amount, converted by molar mass.

Test system: Lactobacillus acidophilus (BB1)
Assay: MIC by resazurin micro-titre method
Type: cell-based
Conditions: beneficial, 37° C., 18-24 h

Structure (SMILES): O=C(O)c1cn(C2CC2)c2cc(N3CCNCC3)c(F)cc2c1=O [Ciprofloxacin, ciprofloxacin]
- MIC: 250 µg/mL (≈ 754 µM)
